The values that follow come from paper PMC3520743.

No constants are given. Whether binding was seen depends on the method and setting. For some assays here: Binding seen in cells or lysates may run through a third protein. Some results given as binding are weak or reduced against the parent protein; the word gives no strength. For some assays here: Sequences can lack the tags named with a protein.

Assay [1] concerns the target T1, Bacillus cereus Fnr, reconstituted holo-form with a [4Fe-4S]2+ cluster (Bacillus cereus F4430/73) (UniProt A4GFD9).
T1 sequence (chain, one [4Fe-4S]2+ cluster per monomer): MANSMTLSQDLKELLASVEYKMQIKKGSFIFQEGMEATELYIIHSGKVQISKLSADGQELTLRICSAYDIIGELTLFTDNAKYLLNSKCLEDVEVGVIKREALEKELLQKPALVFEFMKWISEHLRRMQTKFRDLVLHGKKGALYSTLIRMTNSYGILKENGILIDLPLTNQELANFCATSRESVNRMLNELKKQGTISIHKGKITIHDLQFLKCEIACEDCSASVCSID
Put plainly: far-Western, overlay or dot blot; increasing amounts of purified Fnr, ResD, PlcR and BSA spotted onto nitrocellulose, incubated with biotinylated PlcR or biotinylated ResD under anoxic conditions; streptavidin-HRP, chemiluminescence; both purified.

Assay [2] has as its target ResD, recombinant purified (Bacillus cereus) (UniProt Q0GZR8). The assay is described as above.
Assay [3] deals with T2, Bacillus cereus Fnr, recombinant tag-less apo-form (Bacillus cereus F4430/73) (UniProt A4GFD9).
T2 sequence: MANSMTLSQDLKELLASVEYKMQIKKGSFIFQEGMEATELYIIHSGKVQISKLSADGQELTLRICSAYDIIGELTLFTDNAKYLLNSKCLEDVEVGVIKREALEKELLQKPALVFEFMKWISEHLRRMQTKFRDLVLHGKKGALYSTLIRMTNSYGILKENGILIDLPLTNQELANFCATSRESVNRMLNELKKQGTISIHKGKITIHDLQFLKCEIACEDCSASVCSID
Described as above.

For assay [4], the target named is T2, Bacillus cereus Fnr, recombinant tag-less apo-form (Bacillus cereus F4430/73). Put plainly: cross-linking; dimethyl suberimidate (DMS), in an anaerobic glove box; 12% SDS-PAGE, Western blot with anti-Fnr and anti-ResD antibodies; both purified. In general terms: A western blot detects proteins with antibodies after separation by electrophoresis.
The target in assay [5] is T3, Fnr, endogenous in Bacillus cereus F4430/73 (Bacillus cereus (endogenous in B. cereus F4430/73)) (UniProt A4GFD9).
T3 sequence: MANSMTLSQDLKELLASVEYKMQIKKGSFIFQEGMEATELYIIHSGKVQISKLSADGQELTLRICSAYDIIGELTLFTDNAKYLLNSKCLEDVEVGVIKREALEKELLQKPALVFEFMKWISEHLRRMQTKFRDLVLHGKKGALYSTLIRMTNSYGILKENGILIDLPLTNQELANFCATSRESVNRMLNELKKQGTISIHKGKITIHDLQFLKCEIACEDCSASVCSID
As to the kind of experiment: co-IP; cleared lysate of anaerobically grown B. cereus F4430/73 incubated with polyclonal anti-Fnr on protein A Dynabeads; SDS-PAGE or non-denaturing PAGE, blots with anti-Fnr, anti-ResD, anti-PlcR.

B1: ResD, recombinant purified (protein, UniProt Q0GZR8 1-238)
chain: MENESRILIVDDEDRIRRLLKMYLEREQYTIEEADNGDTALEMALQNDYDLILLDLMMPGKDGIEVCKGVREKKATPIIMLTAKGEEVNRVQGFEVGTDDYIVKPFSPREVVLRVKAVLRRAVPTTFFTQDTTTKDVTVFPHLTIDNDAHRVTADGNEVNLTPKEYELLLFLAKAPDKVFDREQLLKEVWQYEFFGDLRTVDTHVKRLREKLSKKSPDAAKMIVTVWGVGYKFEVVND
modifications: biotin (where used as the probe in the Far-Western)
Regarding B1, the binding result in assay [1], in assay [2], in assay [3] and in assay [4] was “binds” each time.

B2: ResD, endogenous in Bacillus cereus F4430/73 (protein, UniProt Q0GZR8 1-238)
chain: MENESRILIVDDEDRIRRLLKMYLEREQYTIEEADNGDTALEMALQNDYDLILLDLMMPGKDGIEVCKGVREKKATPIIMLTAKGEEVNRVQGFEVGTDDYIVKPFSPREVVLRVKAVLRRAVPTTFFTQDTTTKDVTVFPHLTIDNDAHRVTADGNEVNLTPKEYELLLFLAKAPDKVFDREQLLKEVWQYEFFGDLRTVDTHVKRLREKLSKKSPDAAKMIVTVWGVGYKFEVVND
On to B2, for which, in assay [5], the binding entry is reported as “binds”.
